{"source": "patent US20080241152A1", "about": "(VEGENICS, published 2008)", "binders": {"B1": {"name": "mouse VEGF-C (recombinant, medium of Bosc23 cells transfected with mouse VEGF-C cDNA) (ligand)", "chain": "FESGLGFSEAEPDGGEVKAFEGKDLEEQLRSVSSVDELMSVLYPDYWKMYKCQLRKGGWQQPTLNTRTGDSVKFAAAHYNTEILKSIDNEWRKTQCMPREVCIDVGKEFGAATNTFFKPPCVSVYRCGGCCNSEGLQCMNTSTGYLSKTLFEITVPLSQGPKPVTISFANHTSCRCMSKLDVYRQVHSIIRRSLPATLPQCQAANKTCPTNYVWNNYMCRCLAQQDFIFYSNVEDDSTNGFHDVCGPNKELDEDTCQCVCKGGLRPSSCGPHKELDRDSCQCVCKNKLFPNSCGANREFDENTCQCVCKRTCPRNQPLNPGKCACECTENTQKCFLKGKKFHHQTCSCYRRPCANRLKHCDPGLSFSEEVCRCVPSYWKRPHLN"}}, "target": "recombinant Flt4 extracellular domain with C-terminal 6xHis tag (baculovirus), coupled to Sepharose (human) (UniProt P35916)", "assay": "pull-down of 35S-labelled Bosc23 medium with VEGFR-3 extracellular domain coupled to sepharose", "note": "Results are given in words; binding and its absence hold for the method and conditions named. Binding seen in cells or lysates may run through a third protein. Some entries that bind do so weakly or less than the wild type."}
{"binder": "B1", "values": [{"measurement": "binding", "result": "binds"}]}
